This is an account of results in paper doi:10.1101/2025.05.14.653660.

The chains behind the UniProt entries cited, without tags or fusion partners. Where a name states a change or a piece, a line headed by the entry shows the natural chain unless it says otherwise.
UniProt Q96KQ7: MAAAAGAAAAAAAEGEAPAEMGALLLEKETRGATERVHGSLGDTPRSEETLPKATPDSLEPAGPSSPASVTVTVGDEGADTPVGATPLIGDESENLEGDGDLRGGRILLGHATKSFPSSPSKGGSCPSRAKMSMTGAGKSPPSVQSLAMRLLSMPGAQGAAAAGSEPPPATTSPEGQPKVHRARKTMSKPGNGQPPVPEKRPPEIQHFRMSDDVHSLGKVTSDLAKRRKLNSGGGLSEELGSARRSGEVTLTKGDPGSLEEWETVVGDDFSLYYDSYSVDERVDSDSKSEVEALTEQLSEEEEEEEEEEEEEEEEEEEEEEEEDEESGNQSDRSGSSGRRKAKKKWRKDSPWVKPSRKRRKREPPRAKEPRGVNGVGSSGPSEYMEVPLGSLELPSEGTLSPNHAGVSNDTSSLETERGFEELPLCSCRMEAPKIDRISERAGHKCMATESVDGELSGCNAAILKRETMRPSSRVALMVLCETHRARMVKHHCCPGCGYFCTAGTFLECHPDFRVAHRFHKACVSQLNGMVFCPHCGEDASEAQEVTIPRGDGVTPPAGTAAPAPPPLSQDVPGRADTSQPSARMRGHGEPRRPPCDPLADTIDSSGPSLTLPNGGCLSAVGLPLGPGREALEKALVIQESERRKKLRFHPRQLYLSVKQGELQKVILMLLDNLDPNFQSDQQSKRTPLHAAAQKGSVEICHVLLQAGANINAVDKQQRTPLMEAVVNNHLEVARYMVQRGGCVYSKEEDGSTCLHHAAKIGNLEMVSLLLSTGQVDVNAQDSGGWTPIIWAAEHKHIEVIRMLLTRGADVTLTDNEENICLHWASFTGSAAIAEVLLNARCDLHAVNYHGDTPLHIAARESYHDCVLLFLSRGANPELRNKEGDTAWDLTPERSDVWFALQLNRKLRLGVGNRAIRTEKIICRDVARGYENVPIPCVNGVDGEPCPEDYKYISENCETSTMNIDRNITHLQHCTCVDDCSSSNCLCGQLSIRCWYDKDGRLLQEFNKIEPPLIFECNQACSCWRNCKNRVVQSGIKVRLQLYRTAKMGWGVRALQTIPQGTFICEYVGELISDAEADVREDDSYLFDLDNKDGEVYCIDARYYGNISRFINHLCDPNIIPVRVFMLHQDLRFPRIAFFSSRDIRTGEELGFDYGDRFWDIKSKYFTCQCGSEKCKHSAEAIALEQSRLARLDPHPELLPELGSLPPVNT

The assay addresses T1, FLAG-tagged RUNX1T1 (UniProt Q06455).
T1 sequence: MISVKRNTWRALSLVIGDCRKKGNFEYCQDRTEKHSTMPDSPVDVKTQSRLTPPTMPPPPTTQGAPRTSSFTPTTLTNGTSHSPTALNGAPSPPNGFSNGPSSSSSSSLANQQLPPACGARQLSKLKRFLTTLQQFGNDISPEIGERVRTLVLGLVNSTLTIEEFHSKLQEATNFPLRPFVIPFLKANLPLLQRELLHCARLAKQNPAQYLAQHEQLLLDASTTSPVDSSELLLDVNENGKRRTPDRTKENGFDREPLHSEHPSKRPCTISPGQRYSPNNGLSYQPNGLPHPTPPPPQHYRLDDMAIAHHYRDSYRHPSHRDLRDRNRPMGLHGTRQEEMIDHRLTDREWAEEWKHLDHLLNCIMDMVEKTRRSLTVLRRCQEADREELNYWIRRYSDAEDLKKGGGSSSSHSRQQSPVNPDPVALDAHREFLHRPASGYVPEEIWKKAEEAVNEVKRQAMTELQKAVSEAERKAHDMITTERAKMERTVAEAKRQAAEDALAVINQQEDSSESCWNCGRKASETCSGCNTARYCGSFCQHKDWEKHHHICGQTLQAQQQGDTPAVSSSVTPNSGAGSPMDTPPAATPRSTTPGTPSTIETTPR
Description: co-IP.

Results are given in words; binding and its absence hold for the method and conditions named. In cells and extracts the contact can be indirect. Some results given as binding are weak or reduced against the parent protein; the word gives no strength. Sequences can lack the tags named with a protein.

On to EHMT2/G9A (from UniProt Q96KQ7 1-1210), for which the binding result is on record as “binds”.

B1: LASP1 (protein, UniProt Q14847 1-261)
chain: MNPNCARCGKIVYPTEKVNCLDKFWHKACFHCETCKMTLNMKNYKGYEKKPYCNAHYPKQSFTMVADTPENLRLKQQSELQSQVRYKEEFEKNKGKGFSVVADTPELQRIKKTQDQISNIKYHEEFEKSRMGPSGGEGMEPERRDSQDGSSYRRPLEQQQPHHIPTSAPVYQQPQQQPVAQSYGGYKEPAAPVSIQRSAPGGGGKRYRAVYDYSAADEDEVSFQDGDTIVNVQQIDDGWMYGTVERTGDTGMLPANYVEAI
Consider B1, for which the binding result was “binds”.
